Here are results for two sequences from article doi:10.1101/2022.05.09.490802.

The subject of this series is Iron-responsive protein (IRP). The series is described as follows: EMSA. In general terms: A gel shift assay detects complexes by their altered migration in electrophoresis.

Read-outs that look alike come from different tables or passages of the source. Construct, isoform or probe ends are uncertain for at least one entry. No signal at the amounts used counts as a negative. At least one verdict rests on a figure or table, not on a statement of the authors.

Turning to “GACGCTGCCGAATTCTACCAGTGCCTTGCTAGGACATCTTTGCCCACCTGCAGGTTCACCC [60-mer ssDNA (EMSA1)]”, the binding result is listed as “no binding”.

Consider “UCCUGCUUCAACAGUGCUUGGACGGAAC [IRE RNA 28-mer]”, for which the binding result (tRNA present, competed by 1 uM unlabeled IRE RNA) was “binds”.
